For data set [1], the system named is total cellular ^63Cu levels in HeLa cells. As to the kind of experiment: ICP-MS of total cellular copper in HeLa cells. In kind it is cell-based, Human. The note with it: ascorbate 1 mM or BSO 1 mM.
The nature of data set [2]: Ratiometric fluorescence response (F526/F576) to Cu(I) in aqueous buffer. The conditions noted are these: probe 0.5 to 20 μM, no Cu(I). Here is the method:
UV-vis absorption and emission measurements. FCP-1 stock solution in DMSO (5 mM) was prepared, aliquoted and stored at […]. For each spectroscopic measurement, a fresh aliquot was diluted to 500 μM by DMSO and further diluted with PBS containing 2 mM GSH/PEG-400 mixture (3:2, v/v) to prepare the sensing solution with 5 μM of FCP-1. The sensing solution was pre-incubated in a water bath at 37° C., and then [Cu(CH3CN)](PF6) in MeCN or other metal ions in H2O was added. The solution mixture was kept at 37° C. and taken out for UV-vis absorption or emission spectroscopic measurements in quartz cuvette at predetermined time intervals. Emission spectra were corrected using coumarin 153 as secondary emission standard (4). Photoluminescence quantum yield (PLQY) was determined using fluorescein in 0.1 M NaOH solution (0.95; λex=496 nm). FRET efficiency from the fluorescein moiety to rhodamine moiety of FCP-1 was estimated by [1−(PLQY of FCP-1/PLQY of FL-TPA)].
The ratiometric fluorescence change of FCP-1 at 526 and 576 nm (F526/F576) was rapid and reached saturation after ca. 30 min in the presence of a two-fold excess of Cu(I) (10 μM).

“Also recorded” adds a separate entry of the source.

For `CCCCS(=N)(=O)CCC(N)C(=O)O` (centres unmarked) [BSO, buthionine sulfoximine], the “total copper levels by ICP-MS compared to vehicle control” value in data set [1] is recorded as “no change; also recorded: did not differ significantly”.

`CC[N+](CC)=c1ccc2c(-c3ccccc3C(=O)O)c3ccc(N4CCN(Cc5cccc(CN(Cc6ccccn6)Cc6cccc(COc7ccc8c(-c9ccccc9C(=O)OC)c9ccc(=O)cc-9oc8c7)n6)n5)CC4)cc3oc-2c1` [FCP-1]: the “basal F526/F576 emission ratio with varying concentrations of probe” value in data set [2] was “No significant changes; also recorded: did not show significant changes”.

(Values after US12241902B2, “Probes for detection of copper” (The Regents of the University of California, priority 2019, dated 2025).)
